The other results are listed elsewhere or left out. Rule as the data show it: active = 2 or more and inactive = the rest. Most values lie within the scatter of the assay; repeated measurements hardly agree.

For this experiment, the system named is Lgr5 (MarsCy1-Lgr5-EGFP, U2OS). In words: cell-surface Lgr5 expression (SCi1 fluorescence, background-subtracted) relative to WT DMSO (fold of DMSO control); higher = more Lgr5 at the plasma membrane. Particulars: U2OS MarsCy1-Lgr5-EGFP stable; treatment time: overnight; library: ActiProbe-5K (TimTec); 25 µM.
On to `Cc1cc(S(=O)(=O)N2CCCC2)c(C)s1`, for which the “cell-surface Lgr5 expression” value is inactive: 1.14.
For `CCN1CC2=C(OC(N)=C(C#N)C2c2cccs2)/C(=C/c2cccs2)C1` (stereo unspecified) the value was inactive: 1.08.
For `Cc1cc(C)[n+]2cc(S(=O)(=O)[O-])sc2n1`, the “cell-surface Lgr5 expression” value was inactive: 1.6.
Turning to `COc1cc(-c2nnc(S)o2)cc(OC)c1OC`, the “cell-surface Lgr5 expression” value was inactive: 1.21.
For `Oc1ccc(Br)cc1/C=N/n1cnnc1`, the “cell-surface Lgr5 expression” value was inactive: 0.832.
For `Cc1ccc2nc(NC(=N)N)nc(C)c2c1` the value was active: 2.79.
To `CC12CCC3c4ccc(O)cc4CCC3C1CCC2O` (stereo unspecified) belongs inactive: 1.3; to `FC(F)(F)c1n[nH]cc1Br`, inactive: 1.1.
To `O=C1NC(=O)[C@H]2[C@@H]1[C@@H](C(=O)c1ccccc1)N1c3ccccc3C=C[C@H]21` belongs inactive: 1.22; to `O=C(N/N=C\c1ccc([N+](=O)[O-])o1)N/N=C\c1ccc([N+](=O)[O-])o1`, inactive: 1.07; to `CC1(C(=O)Nc2nc3c(s2)CCCCC3)CC1(Cl)Cl` (stereo unspecified), inactive: 1.17.
Regarding `Nc1nonc1/C(=N\O)N1CCOCC1`, the “cell-surface Lgr5 expression” value is inactive: 1.21.
For the compound `O=S(=O)(c1ccc2ccccc2c1)N1CCc2cc(Br)ccc21`, the “cell-surface Lgr5 expression” value is inactive: 0.627.
In the case of `C#CCOc1cccc(/C=N/Nc2nncn2N)c1`, the “cell-surface Lgr5 expression” value was inactive: 1.06.
For `O=[N+]([O-])c1cc(C(F)(F)F)cc(Cl)c1F` the value was inactive: 1.08; for `Cc1nc2ccccc2nc1CCl`, inactive: 1.12; for `O=c1[nH]c(=O)c2cc3c(=O)[nH]c(=O)c3cc12`, inactive: 1.09.
For `OC[C@@H]1O[C@H](O[C@H]2O[C@H](CO[C@@H]3O[C@H](CO)[C@H](O)[C@H](O)[C@H]3O)[C@@H](O)[C@H](O)[C@H]2O)[C@H](O)[C@H]1O` the value was inactive: 1.07; for `CS/C(N)=N/N=C/c1c(O)ccc2ccccc12`, inactive: 0.857; for `C#CC(C)(CC)NC(=O)c1cc2ncc(Br)cn2n1` (stereo unspecified), inactive: 0.94.
As for `Fc1ccc(CN2COc3cc4c(cc3C2)OCN(Cc2ccc(F)cc2)C4)cc1`, the “cell-surface Lgr5 expression” value was inactive: 1.45.
Turning to `O=C(CSc1nnc[nH]1)Nc1nccs1`, the “cell-surface Lgr5 expression” value was inactive: 0.957.
For `C1=C(Cc2ccccc2)C(c2ccccc2)SC(c2ccccc2)=C1/C=N\c1ccccc1` (stereo unspecified) the value was inactive: 0.824.
Regarding `Cn1c(SCC(=O)O)nc2sc3c(c2c1=O)CCCC3`, the “cell-surface Lgr5 expression” value is inactive: 1.41.
To `CC(=O)C1C(=O)CC(c2ccco2)CC1=O` (stereo unspecified) belongs inactive: 1.1; to `Fc1cnc(Nc2ccccc2)nc1Nc1ccccc1`, inactive: 0.672.
With `CCOC(=O)C1=C(C)N=c2s/c(=C/c3cccs3)c(=O)n2C1c1cccs1` (stereo unspecified), the “cell-surface Lgr5 expression” value is inactive: 0.779.
To `Fc1ccc(NC(=S)NCC2CCCO2)cc1Cl` (stereo unspecified) belongs inactive: 1.27; to `C/N=C1\S/C(=C/c2cccn2-c2ccc(N(C)C)cc2)C(=O)N1C`, inactive: 1.08.
Regarding `Cc1nn(Cc2noc(C(=O)NCC3CCCO3)n2)c(C)c1Br` (stereo unspecified), the “cell-surface Lgr5 expression” value was inactive: 0.923.
For `CC(=O)c1c(NCc2ccco2)oc(C)cc1=O` the value was inactive: 1.02; for `COC(=O)C1(C(F)(F)F)N=C2Sc3ccccc3N2C(=O)N1` (stereo unspecified), inactive: 1.11.
For `O=[N+]([O-])c1ccc(-[n+]2nc(-c3ccccc3)nn2-c2ccccc2)cc1.[Br-]` the value was inactive: 0.949; for `Cc1nc2sc(C#N)c(N)c2c(C)c1Cl`, inactive: 1.07; for `CC1(C)OC(=O)N(CC2CCCO2)C1(C)O` (stereo unspecified), inactive: 1.11.
Regarding `c1(N\N=C(\C)C)nccc2c1cccc2`, the “cell-surface Lgr5 expression” value was inactive: 1.46.
To `O=C1CSC2(C(=O)Nc3ccccc32)N1c1ccc2c(c1)oc1ccccc12` (stereo unspecified) belongs inactive: 1.06; to `CS(=O)(=O)c1ccccc1`, inactive: 1.14.
For `COc1ccccc1OCCSc1nc2ccccc2o1` the value was inactive: 0.956; for `Nc1nonc1/C(=N\O)N1CCCC1`, inactive: 1.22.
Turning to `Cc1cc(C)c2c(C)cc(Cl)nc2c1`, the “cell-surface Lgr5 expression” value was inactive: 1.69.
For `Nc1ccc(S(=O)(=O)Nc2ccc3cn[nH]c3c2)cc1` the value was inactive: 0.858; for `Cc1cc(O)c(C(C)(C)C)cc1Sc1cc(C(C)(C)C)c(O)cc1C`, inactive: 0.656; for `CN(c1nc2ccccn2c(=O)c1/C=C1/SC(=S)N(C2CCS(=O)(=O)C2)C1=O)C1CCCCC1` (stereo unspecified), inactive: 1.59.
For `CCCCc1ccc(C(C2C(=O)CC(C)(C)CC2=O)C2C(=O)CC(C)(C)CC2=O)s1` the value was inactive: 1.09.
`CN(C)c1c2c(c(C#N)c3nc4ccccc4n13)CCC2`: the “cell-surface Lgr5 expression” value is inactive: 1.07.
For `O=[N+]([O-])c1ccn(CCl)n1`, the “cell-surface Lgr5 expression” value was inactive: 1.21.
To `Oc1ccc2oc3c(c2c1)CCCC3` belongs inactive: 0.677; to `Nc1nc(S)c2ncn(C3OC(CO)C(O)C3O)c2n1` (stereo unspecified), inactive: 0.487; to `Nc1sc2c(c1CO)CCCC2`, inactive: 1.33.
For `N#CC1=C(N)SC(c2cccs2)C(C#N)=C1N` (stereo unspecified) the value was inactive: 1.12; for `CN1N=C(C(=O)O)CCC1=O`, inactive: 1.29.
To `CC(C)(O)c1cn2ccccc2n1` belongs inactive: 1.21.
For the compound `CC1CCN(Cn2nc(-c3ccco3)n(C)c2=S)CC1`, the “cell-surface Lgr5 expression” value is inactive: 1.11.
For the compound `O=C(Nc1nccs1)C12CC3CC(CC(C3)C1)C2`, the “cell-surface Lgr5 expression” value is inactive: 0.83.
To `CN(C)S(=O)(=O)N1CCN(Cc2ccc3c(c2)OCO3)CC1` belongs inactive: 0.985; to `CCn1nc(C)c(C=O)c1C`, inactive: 1.08; to `N#Cc1ccc(-c2ccncc2)nc1SCc1cccnc1`, inactive: 1.2.
In the case of `Nc1nc(SCc2ccc(Cl)cc2)ns1`, the “cell-surface Lgr5 expression” value is inactive: 1.11.
To `CC1(C)Nc2ccc(C(c3ccccc3)(c3ccccc3)c3ccccc3)cc2-c2c1ssc2=S` belongs inactive: 1.13.
Consider `Brc1ccc2nc3c(n2c1)CCCC3`, for which the “cell-surface Lgr5 expression” value was inactive: 1.07.
For the compound `O=C1NC2C=CC=CC2/C1=N\Nc1nc2ccccc2c(=O)n1-c1ccccc1` (stereo unspecified), the “cell-surface Lgr5 expression” value is inactive: 1.31.
To `CCOC(=O)c1n[nH]c2c([N+](=O)[O-])n[nH]c12` belongs inactive: 1.3.
To `Cc1c(-c2cc(C(=O)[O-])no2)cnn1C` belongs inactive: 0.999; to `CN(C)c1cccc2c(S(=O)(=O)NN)cccc12`, inactive: 1.07.
To `C[N+](C)(Cc1ccccc1)Cc1ccccc1.[Cl-]` belongs inactive: 0.83.

The record behind these values is the supplement of paper PMC4683952.
